PubChem BioAssay AID504467 (National Center for Advancing Translational Sciences (NCATS), 2011)
Out of some 330,000 compounds screened, about 7,700 (2.3%) were called active. The shares of active, inactive and inconclusive entries below differ from those in the screen. Calls come from the whole dose curve; as a rule, active = well fitted inhibition curve with a large enough effect; inconclusive = small, poorly fitted or top-dose-only effect, or effect the other way; inactive = flat fitted curve, though single readings scatter. Potencies beside an inconclusive call are fits to weak or partial responses and may not hold up.

Test: qHTS screen for small molecules that inhibit ELG1-dependent DNA repair in human embryonic kidney (HEK293T) cells expressing luciferase-tagged ELG1; note: nearly all actives have a fitted effect of over 55% in size
Details: HEK293T ELG1-luciferase reporter, luminescence, 16 h, DNA damage induced by 5-fluorouridine; activity change, negative = inhibition: at 46.1 µM (top of the series)
Procedure, shortened: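 Quantitative HTS, concentration-response format. 2,000 cells/well co-treated with 5-fluorouridine and compound, 16 hr in 5% CO2 at 37 °C; ONE-Glo luminescence read after 30 min.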
% is set by controls: 0 for no effect and ±100 for the full control effect; potency is the fitted concentration of half-maximal effect.

Structure (SMILES)	Potency	activity change, negative = inhibition
CC(=O)c1ccc2c(c1)C1C=CCC1C(c1ccncc1)N2 (centres undefined)	inconclusive: 18.4 µM [activator, single point]	–
Cn1c(=O)n(CCc2ccccc2)c(=O)c2c1ncn2Cc1ccccc1	inconclusive: 22.4 µM [inhibitor, single point]	–
Cc1cccc(C)c1OCCOCCN1CCN(C)CC1	–	inactive: 2.79%
COC(=O)c1c(C)[nH]c(C(=O)C(C)Sc2nnc(-c3cc(OC)c(OC)c(OC)c3)o2)c1C (centres undefined)	inconclusive: 7.31 µM [inhibitor, partial curve]	–
O=c1c2ccccc2nc2c3ccccc3c(NCc3ccco3)nn12	inconclusive: 16.4 µM [inhibitor, partial curve]	–
Cc1ccc([N+](=O)[O-])cc1S(=O)(=O)Nc1ccc(C(=O)NCC2CCCO2)cc1 (centres undefined)	–	inactive: -19.8%
Cc1cc(C)c(OCC(=O)NCC2COc3ccccc3O2)c(C)c1 (centres undefined)	–	inactive: -1.33%
CCOc1cc(C2C(C#N)=C(N)OC(C)=C2C(C)=O)c(Br)c(Br)c1OC(C)C (centres undefined)	–	inactive: -28.9%
Cc1c(CCOC(=O)C23CC4CC(CC(C4)C2)C3)sc[n+]1Cc1ccccc1	–	inactive: -20.8%
Nc1nc(Cl)cc(NCCc2ccccc2)n1	inconclusive: 29.1 µM [inhibitor, single point]	–
COc1ccc(N2C(=O)C3CCCN3C2c2ccc(C)cc2)cc1Cl (centres undefined)	inconclusive: 20.6 µM [activator, partial curve, poor fit]	–
COC(=O)c1cc(OC)c(OC)cc1NC(=O)c1c(-c2ccccc2)noc1C	inconclusive: 5.17 µM [inhibitor, single point]	–
Cc1nc(-c2ccc(Cl)cc2)sc1C(=O)O	inconclusive: 10.3 µM [activator, partial curve]	–
CC(=O)c1cnc2c(-c3ccc(Cl)cc3)cnn2c1C	inconclusive: 16.4 µM [activator, partial curve]	–
CC1(C)CC(=O)C(C(C2=C(O)CC(C)(C)CC2=O)c2ccc(O)c([N+](=O)[O-])c2)=C(O)C1	–	inactive: 7.23%
CCc1cc(/C(Cc2cscn2)=N\O)c(O)cc1O	inconclusive: 20.6 µM [inhibitor, partial curve, poor fit]	–
CCOC(=O)c1cnc(-c2ccccc2)nc1Oc1ccc(OC)cc1	inconclusive: 32.6 µM [inhibitor, single point]	–
CC(C)(C)C(=O)N1N=C(c2cccc(NS(C)(=O)=O)c2)CC1c1cccs1 (centres undefined)	inconclusive: 25.9 µM [inhibitor, single point]	–
CC/C(C)=C1\SC(N2CCN(C(C)=O)CC2)=NC1=O	inconclusive: 3.66 µM [inhibitor, single point]	–
Cc1cc(Nc2ccc(F)cc2C)n2ncnc2n1	–	inactive: 19.8%
COc1cc(OC)cc(C(=O)N[C@H](C(=O)OCC(=O)Nc2ccc(F)c(F)c2)C(C)C)c1	inconclusive: 20.6 µM [inhibitor, single point]	–
O=C1NC[C@H](c2ccccc2)OC(=O)[C@@H](Cc2ccc(F)cc2)CC/C=C/C[C@H]1CC(=O)N(CCO)Cc1ccccc1	active: 5.17 µM	–

One compound at a time (already shown). Values in the order: Potency	activity change, negative = inhibition
`O=C1NC[C@H](c2ccccc2)OC(=O)[C@@H](Cc2ccc(F)cc2)CC/C=C/C[C@H]1CC(=O)N(CCO)Cc1ccccc1` is entered as active: 5.17 µM	–
`Cc1ccc([N+](=O)[O-])cc1S(=O)(=O)Nc1ccc(C(=O)NCC2CCCO2)cc1` (centres undefined) is entered as –	inactive: -19.8%
`COc1ccc(N2C(=O)C3CCCN3C2c2ccc(C)cc2)cc1Cl` (centres undefined) is entered as inconclusive: 20.6 µM [activator, partial curve, poor fit]	–

(further entries)

Structure (SMILES)	Potency	activity change, negative = inhibition
CN1C(=O)NC(c2ccccc2[N+](=O)[O-])C2=C1CC(C)(C)CC2=O (centres undefined)	inconclusive: 3.66 µM [inhibitor, partial curve, poor fit]	–
Cc1ccc(OCCCn2c(=O)oc3ccccc32)cc1	inconclusive: 16.4 µM [activator, partial curve, poor fit]	–
CCOC(=O)CC1(NC(=O)c2cc(COc3cncc(Cl)c3)on2)CCCCC1	–	inactive: -8.66%
COc1ccc(-c2nc3ccccn3c2C=O)cc1	inconclusive: 5.8 µM [activator, partial curve]	–
CCn1cc(/C=N\NC(=O)c2csc3ccccc23)c(C)n1	inconclusive: 20.6 µM [activator, partial curve, poor fit]	–
CC1CCCCC1NC(=O)c1ccc2c(c1)OCCO2 (centres undefined)	inconclusive: 23.1 µM [activator, partial curve, poor fit]	–
CCc1n[nH]c(=S)n1/N=C/c1c(C)nn(-c2ccccc2)c1Cl	–	inactive: -14.6%
Cc1ccc(N2C(=O)c3ccccc3NC2C(C)Cc2ccc3c(c2)OCO3)cc1 (centres undefined)	inconclusive: 29.1 µM [inhibitor, single point]	–
Cc1cc(C(=O)NC(=S)Nc2cccc(C(=O)O)c2C)ccc1[N+](=O)[O-]	–	inactive: 6.43%
CCc1ccc(NC(=S)NC2CC3CCC(C2)N3Cc2ccco2)cc1 (centres undefined)	–	inactive: -2.49%
O=C(CSc1nnc(-c2cccnc2)o1)Nc1ccccc1Br	inconclusive: 14.6 µM [activator, single point]	–
COc1ccc(N2CCN(C(=O)COC(=O)c3oc4ccccc4c3C)CC2)cc1	inconclusive: 11.6 µM [inhibitor, single point]	–
O=C(/C=C/Nc1ccc(F)c(Cl)c1)c1ccccc1	inconclusive: 5.8 µM [activator, partial curve]	–
Cc1ccc(N=c2c([N+](=O)[O-])nn(-c3ccc4c(c3)OCCO4)n2O)c(Cl)c1	inconclusive: 18.3 µM [activator, partial curve]	–
O=C(CN1CCN(C(=O)C2CC2)CC1)Nc1ccc(Cl)cc1F	–	inactive: -1.48%
NC(=S)N=Nc1c(O)n(Cc2ccc(F)cc2)c2ccccc12	inconclusive: 20.6 µM [activator, single point]	–
C=CCn1c(SCC(=O)OCC)nc2cc(C(=O)NCc3ccco3)ccc2c1=O	inconclusive: 20.6 µM [inhibitor, partial curve, poor fit]	–
Cc1ccc(S(=O)(=O)N2CCCCC2CCNC(=O)C(=O)NCc2ccco2)cc1 (centres undefined)	–	inactive: -1.64%
COc1cccc(-c2nc(CS(=O)(=O)CC(=O)Nc3cc(F)ccc3F)c(C)o2)c1	active: 18.3 µM	–
C=CCc1ccccc1OCC(=O)OCCNC(=O)c1cccnc1	inconclusive: 29.1 µM [inhibitor, single point]	–
C/C(=N/NC(=O)c1cccnc1)C1=C(O)CC(C)(C)CC1=O	inconclusive: 29.1 µM [activator, single point]	–
Cc1ccnc(NC(=O)c2cccc(S(=O)(=O)N3CCCC3)c2)c1	inconclusive: 14.6 µM [activator, single point]	–
